Reference: ChEMBL document CHEMBL4308851, “Alkyl-guanidine Compounds as Potent Broad-Spectrum Antibacterial Agents: Chemical Library Extension and Biological Characterization” (J Med Chem, 2018)

Assay: in vitro
Details: human, Caco-2

CC(C)NCC(O)COc1cccc2ccccc12 (stereo unspecified) [PROPRANOLOL]
Papp A→B at 2 h, 10 µM: 22.4 ×10⁻⁶ cm/s
